Reference: article PMC8994553, “Effects of chameleon dispense-to-plunge speed on particle concentration, complex formation, and final resolution: A case study using the Neisseria gonorrhoeae ribonucleotide reductase inactive complex” (Journal of structural biology, 2021)
No constants are given. Whether binding was seen depends on the method and setting. Some entries that bind do so weakly or less than the wild type.

T1: Neisseria gonorrhoeae class Ia ribonucleotide reductase NrdA (α) subunit (Neisseria gonorrhoeae)
T1 sequence: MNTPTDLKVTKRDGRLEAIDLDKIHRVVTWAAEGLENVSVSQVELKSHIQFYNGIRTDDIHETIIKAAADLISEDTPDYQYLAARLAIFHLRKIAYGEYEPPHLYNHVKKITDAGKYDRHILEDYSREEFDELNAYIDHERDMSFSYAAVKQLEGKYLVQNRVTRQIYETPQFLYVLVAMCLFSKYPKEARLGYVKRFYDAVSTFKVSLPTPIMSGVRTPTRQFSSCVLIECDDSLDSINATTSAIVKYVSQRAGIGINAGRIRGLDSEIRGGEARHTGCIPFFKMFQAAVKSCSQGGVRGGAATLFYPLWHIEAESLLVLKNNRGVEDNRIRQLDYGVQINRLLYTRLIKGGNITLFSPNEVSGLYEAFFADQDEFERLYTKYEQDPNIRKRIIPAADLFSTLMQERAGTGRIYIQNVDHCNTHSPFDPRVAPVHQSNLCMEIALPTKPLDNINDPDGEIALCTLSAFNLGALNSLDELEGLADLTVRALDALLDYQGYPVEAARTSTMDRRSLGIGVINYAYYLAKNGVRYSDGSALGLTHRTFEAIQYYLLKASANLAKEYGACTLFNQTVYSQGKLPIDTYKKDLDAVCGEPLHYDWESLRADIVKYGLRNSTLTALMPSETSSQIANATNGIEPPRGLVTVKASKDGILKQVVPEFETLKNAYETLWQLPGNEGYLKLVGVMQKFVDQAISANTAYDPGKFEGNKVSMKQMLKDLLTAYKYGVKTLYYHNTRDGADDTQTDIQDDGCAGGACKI

B1: Neisseria gonorrhoeae class Ia ribonucleotide reductase NrdB (β) subunit, hydroxyurea-inactivated (met-β2) (enzyme, UniProt A0ACH0F974 1-377, looked up)
chain: MSYSTFPKTKNDALKEPMFFGQPVNVARYDQQKYEVFEKLIEKQLSFFWRPEEIDVSRDRIDYANLPEHEKHIFISNLKYQTLLDSIQGRSPNVALLPLVSIPELETWVETWSFSETIHSRSYTHIIRNIVNDPSVVFDDIVENEYITARAEDIACYYDDLIEYTQYYNLLGEGVHNVGGKPVTVSLRGLKKKLYLCLMCVNVLEAIRFYVSFACSFAFAERELMEGNAKIIKLIARDEALHLTGTQHMLNLMRSGVDDPEMAEIAAELQDECFQLFKKAAEQEKEWAAYLFKDGSMIGLNKEILSQYVEYITNLRMQAVGLPAGFEGANQNPIPWINAWLSSDNVQVAPQEVEISSYLIGQIDSEVNTDDLGDFEL
notes: N. gonorrhoeae class Ia RNR radical-generating subunit NrdB (β); 377 residues as printed (model holds four residues of the histidine tag, residues 1-346 and 374-376 of 377); expected MW 43253 Da; met-β2: diiron cluster reconstituted (1.8 +/- 0.3 iron per monomer), tyrosyl radical quenched with hydroxyurea; also called NgRNR β; His6-TEV-NgRNR β; source: E. coli T7 Express, pET30a(+), purified …
B2: Neisseria gonorrhoeae class Ia ribonucleotide reductase NrdA (α) subunit (enzyme, UniProt A0ACH0F9A0 1-759)
chain: T1 sequence

Target: T1, Neisseria gonorrhoeae class Ia ribonucleotide reductase NrdA (α) subunit (Neisseria gonorrhoeae)
Test: cryo-EM structure; α and β mixed 1:1.5 (α:β) with 1 mM dATP and 1 mM CDP on ice in 50 mM HEPES pH 7.6, 15 mM MgCl2, 1 mM EDTA; chameleon 54 ms dispense-to-plunge, 6 mg/mL protein (4.3 Å); also Vitrobot grid, 0.5 mg/mL (5.6 Å); dATP-inactivating conditions; both purified

Binder | binding
B1 | binds
B2 | binds
